Laboratory results published in article PMC12246756 (Frontiers in Pharmacology, 2025).

Key:
Format in all cases: cell-based, human
[1] = tested on: A375 (melanoma); test: Sulforhodamine B (SRB) assay, A375; conditions: IC50 in HEK-293 / IC50 in A375
Text: (§1) Roswell Park Memorial Institute (RPMI)-1640 medium, Dulbecco’s modified eagle medium high glucose (DMEM; Gibco) supplemented with 10% Fetal Bovine Serum (FBS; Gibco, and 1% antibiotic-antimycotic (Gibco; Anti-Anti 100x), phosphate-buffered saline (PBS; Gibco), 0.25% trypsin (Gibco), sodium pyruvate (Sigma-Aldrich), HEPES (Gibco). Human cancer cell lines A549 (lung carcinoma), MCF-7 (breast carcinoma), MDAMB-231 (breast carcinoma), A375 (melanoma), and normal human embryonic kidney cells (HEK-293) were taken from Dr. Sheikh Tasduq Abdullah and Dr. Boobalan Gopu (CSIR-IIIM).
Their activity was tested against human cancer cell lines A549 (lung carcinoma), MCF-7 (breast carcinoma), MDAMB-231 (breast carcinoma), and A375 (melanoma). The selectivity index (SI) was calculated against normal human embryonic kidney cells (HEK-293) to determine cytotoxic selectivity. The cells (7 × 10^3 cells/well) were seeded on 96 well plates, followed by overnight incubation. Multiple concentrations (50 µM, 20 µM, 10 µM, 5 µM, and 1 µM) of compounds were used to treat the cells, except for control wells that contained only cells with media. After 48 h of incubation, the cells attached to wells were fixed with 50 µL of chilled 50% TCA, and the plate was kept at 4°C for 1 h, as described previously ([Malik et al., 2023]; [Kumar et al., 2024]). The plate was washed (3–4 times) with distilled water (250 µL/well) and air-dried for 24 h. The next day, 100 µL of 0.4% SRB dye was added to each well, and the cells were incubated at room temperature for 1 h. The plate contents were discarded and washed 3 times with 1% glacial acetic acid (250 µL/well), followed by one last wash with distilled water and air drying for another 24 h. […] The dissolved dye indicating growth inhibition was quantified by calculating optical density at 540 nm via microplate reader (Tecan infinite M200PRO, Switzerland). The IC50 values were calculated using GraphPad Prism Software Version 5.0. […] The selectivity index is calculated by using the formula. […]

[2] = tested on: MCF-7 (breast carcinoma); test: Sulforhodamine B (SRB) assay, MCF-7; conditions: IC50 in HEK-293 / IC50 in MCF-7
Text: as §1
Their activity was tested against human cancer cell lines A549 (lung carcinoma), MCF-7 (breast carcinoma), MDAMB-231 (breast carcinoma), and A375 (melanoma). The selectivity index (SI) was calculated against normal human embryonic kidney cells (HEK-293) to determine cytotoxic selectivity. The cells (7 × 10^3 cells/well) were seeded on 96 well plates, followed by overnight incubation. Multiple concentrations (50 µM, 20 µM, 10 µM, 5 µM, and 1 µM) of compounds were used to treat the cells, except for control wells that contained only cells with media. After 48 h of incubation, the cells attached to wells were fixed with 50 µL of chilled 50% TCA, and the plate was kept at 4°C for 1 h, as described previously ([Malik et al., 2023]; [Kumar et al., 2024]). The plate was washed (3–4 times) with distilled water (250 µL/well) and air-dried for 24 h. The next day, 100 µL of 0.4% SRB dye was added to each well, and the cells were incubated at room temperature for 1 h. The plate contents were discarded and washed 3 times with 1% glacial acetic acid (250 µL/well), followed by one last wash with distilled water and air drying for another 24 h. Subsequently, 100 µL of Tris base (10 mM, pH 10.5) was added to each well to dissolve the dye bound to fixed cells. The dissolved dye indicating growth inhibition was quantified by calculating optical density at 540 nm via microplate reader (Tecan infinite M200PRO, Switzerland). The IC50 values were calculated using GraphPad Prism Software Version 5.0. A favorable Selectivity Index (SI) is the most relevant parameter to detect anti-cancer potential in vitro as it indicates drug safety against cancer cells versus normal cells, efficacy of the drug, and selectivity. The selectivity index is calculated by using the formula. Selective Index=IC50 in Normal cells/IC50 in Cancerous cell lines

[3] = tested on: MDA-MB 231 (breast carcinoma); test: Sulforhodamine B (SRB) assay, MDA-MB 231; conditions: IC50 in HEK-293 / IC50 in MDA-MB 231
Text: as §1
Their activity was tested against human cancer cell lines A549 (lung carcinoma), MCF-7 (breast carcinoma), MDAMB-231 (breast carcinoma), and A375 (melanoma). The selectivity index (SI) was calculated against normal human embryonic kidney cells (HEK-293) to determine cytotoxic selectivity. The cells (7 × 10^3 cells/well) were seeded on 96 well plates, followed by overnight incubation. […] The dissolved dye indicating growth inhibition was quantified by calculating optical density at 540 nm via microplate reader (Tecan infinite M200PRO, Switzerland). The IC50 values were calculated using GraphPad Prism Software Version 5.0. […] The selectivity index is calculated by using the formula. […]

| Compound | SI A375 [1] | SI MCF-7 [2] | SI MDA-MB 231 [3] |
| --- | --- | --- | --- |
| CCOC(=O)C1=C(OCC)NC(=O)NC1c1c2c(c(OC)c(OC)c1OC)-c1ccc(OC)c(=O)cc1[C@H](NC(C)=O)CC2 (stereo partly drawn) [Compound 3h, ethyl 4-((R)-7-acetamido-1,2,3,10-tetramethoxy-9-oxo-5,6,7,9-tetrahydrobenzo [a]heptalen-4-yl)-6-ethoxy-2-oxo-1,2,3,4-tetrahydropyrimidine-5-carboxylate] | 0.75 | 0.53 | – |
| COc1c(OC)c2c(c(C3NC(=O)NC(C)=C3C(=O)Oc3ccccc3)c1OC)CC[C@@H](NC(C)=O)c1cc(=O)c(OC)ccc1-2 (stereo partly drawn) [Compound 3c, phenyl 4-((R)-7-acetamido-1,2,3,10-tetramethoxy-9-oxo-5,6,7,9-tetrahydrobenzo [a]heptalen-4-yl)-6-methyl-2-oxo-1,2,3,4-tetrahydropyrimidine-5-carboxylate] | – | 0.79 | – |
| CCOC(=O)C1=C(C(F)(F)C(F)(F)F)NC(=O)NC1c1c2c(c(OC)c(OC)c1OC)-c1ccc(OC)c(=O)cc1[C@@H](NC(C)=O)CC2 (stereo partly drawn) [Compound 3g, Ethyl 4-((S)-7-acetamido-1,2,3,10-tetramethoxy-9-oxo-5,6,7,9-tetrahydrobenzo [a]heptalen-4-yl)-2-oxo-6-(perfluoroethyl)-1,2,3,4-tetrahydropyrimidine-5-carboxylate] | 1.52 | 1.005 | 0.63 |
| CCOC(=O)C1=C(C)NC(=S)NC1c1c2c(c(OC)c(OC)c1OC)-c1ccc(OC)c(=O)cc1[C@H](NC(C)=O)CC2 (stereo partly shown) [Compound 3a] | – | 0.73 | – |
| CCOC(=O)C1=C(C(Cl)(Cl)Cl)NC(=O)NC1c1c2c(c(OC)c(OC)c1OC)-c1ccc(OC)c(=O)cc1[C@H](NC(C)=O)CC2 (stereo partly drawn) [Compound 3d, Ethyl 4-((R)-7-acetamido-1,2,3,10-tetramethoxy-9-oxo-5,6,7,9-tetrahydrobenzo [a]heptalen-4-yl)-2-oxo-6-(trichloromethyl)-1,2,3,4-tetrahydropyrimidine-5-carboxylate] | – | 0.82 | – |
| CCOC(=O)C1=C(c2cc(F)c(Cl)nc2Cl)NC(=O)NC1c1c2c(c(OC)c(OC)c1OC)-c1ccc(OC)c(=O)cc1[C@H](NC(C)=O)CC2 (stereo partly drawn) [Compound 3e, Ethyl 4-((R)-7-acetamido-1,2,3,10-tetramethoxy-9-oxo-5,6,7,9-tetrahydrobenzo [a]heptalen-4-yl)-6-(2,6-dichloro-5-fluoropyridin-3-yl)-2-oxo-1,2,3,4-tetrahydropyrimidine-5-carboxylate] | – | 0.89 | – |
| CCOC(=O)C1=C(C)NC(=N)NC1c1c2c(c(OC)c(OC)c1OC)-c1ccc(OC)c(=O)cc1[C@H](NC(C)=O)CC2 (stereo partly drawn) [Compound 3b, Ethyl 4-((R)-7-acetamido-1,2,3,10-tetramethoxy-9-oxo-5,6,7,9-tetrahydrobenzo [a]heptalen-4-yl)-2-imino-6-methyl-1,2,3,4-tetrahydropyrimidine-5-carboxylate] | – | 0.85 | – |
| CCOC(=O)C1=C(C(F)(F)C(F)(F)F)NC(=O)NC1c1c2c(c(OC)c(OC)c1OC)-c1ccc(OC)c(=O)cc1[C@H](NC(C)=O)CC2 (stereo partly drawn) [Compound 3f, Ethyl 4-((R)-7-acetamido-1,2,3,10-tetramethoxy-9-oxo-5,6,7,9-tetrahydrobenzo [a]heptalen-4-yl)-2-oxo-6-(perfluoroethyl)-1,2,3,4-tetrahydropyrimidine-5-carboxylate] | 0.62 | 0.67 | 0.38 |
